Results are given in words; binding and its absence hold for the method and conditions named. Binding seen in cells or lysates may run through a third protein. Some results given as binding are weak or reduced against the parent protein; the word gives no strength.
Tests used:
[1] = molecular target: native α4 nAChR subunit from mouse brain (mouse (endogenous in mouse brain)) (UniProt O70174); assay: co-IP; mouse brain S3 fraction (Triton-soluble crude membranes) on M-270 Epoxy Dynabeads linked to nAChR antibodies (methods: mAb299 anti-α4 combined with mAb270 anti-β2; results and legend: anti-α4); overnight at 4 °C; bands of α4 and β2 excised from the gel and identified by LC-MS/MS; mice given saline, acute nicotine or chronic nicotine
[2] = molecular target: β2-nAChR-YFP (nAChR Beta2-YFP) (mouse) (UniProt Q9ERK7); assay: co-IP; lysates of transfected HEK cells on magnetic GFP-nAb resin (Allele), which captures the YFP-tagged subunit; binding buffer 10 mM Tris-HCl, 150 mM NaCl, pH 7.5, detergent not above 0.6%; overnight at 4 °C; high-salt TBS washes; eluate run on SDS gels, bands of tagged and untagged subunits excised and identified by LC-MS/MS; cells co-expressed mRuby or CaMKII-mRuby; some samples treated on the resin with lambda phosphatase, PKA or CaMKIIα
[3] = molecular target: α4-nAChR-YFP (nAChR alpha4-YFP) (mouse) (UniProt O70174); assay: as above

Chains of the proteins cited; added tags and fusions are not shown. Lines headed by an entry give the natural chain unless they say otherwise; changes in a name come on top. Residues count along the entry.
UniProt O70174, residues 31-629: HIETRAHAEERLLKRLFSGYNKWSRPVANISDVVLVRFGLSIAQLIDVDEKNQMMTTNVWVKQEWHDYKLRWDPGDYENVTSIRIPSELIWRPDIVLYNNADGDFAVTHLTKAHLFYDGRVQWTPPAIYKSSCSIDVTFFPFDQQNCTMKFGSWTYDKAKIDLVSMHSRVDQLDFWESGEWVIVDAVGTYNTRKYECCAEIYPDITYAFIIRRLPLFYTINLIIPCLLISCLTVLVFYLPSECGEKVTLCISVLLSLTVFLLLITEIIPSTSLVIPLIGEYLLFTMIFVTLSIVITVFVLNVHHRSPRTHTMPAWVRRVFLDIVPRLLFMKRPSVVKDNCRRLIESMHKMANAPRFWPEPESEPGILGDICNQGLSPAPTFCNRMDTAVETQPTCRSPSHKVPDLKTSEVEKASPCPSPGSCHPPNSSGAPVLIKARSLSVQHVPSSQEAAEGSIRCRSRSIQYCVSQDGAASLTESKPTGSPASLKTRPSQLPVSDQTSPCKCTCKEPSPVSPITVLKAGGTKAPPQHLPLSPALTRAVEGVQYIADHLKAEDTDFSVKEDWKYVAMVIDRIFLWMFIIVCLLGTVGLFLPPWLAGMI
UniProt Q9ERK7: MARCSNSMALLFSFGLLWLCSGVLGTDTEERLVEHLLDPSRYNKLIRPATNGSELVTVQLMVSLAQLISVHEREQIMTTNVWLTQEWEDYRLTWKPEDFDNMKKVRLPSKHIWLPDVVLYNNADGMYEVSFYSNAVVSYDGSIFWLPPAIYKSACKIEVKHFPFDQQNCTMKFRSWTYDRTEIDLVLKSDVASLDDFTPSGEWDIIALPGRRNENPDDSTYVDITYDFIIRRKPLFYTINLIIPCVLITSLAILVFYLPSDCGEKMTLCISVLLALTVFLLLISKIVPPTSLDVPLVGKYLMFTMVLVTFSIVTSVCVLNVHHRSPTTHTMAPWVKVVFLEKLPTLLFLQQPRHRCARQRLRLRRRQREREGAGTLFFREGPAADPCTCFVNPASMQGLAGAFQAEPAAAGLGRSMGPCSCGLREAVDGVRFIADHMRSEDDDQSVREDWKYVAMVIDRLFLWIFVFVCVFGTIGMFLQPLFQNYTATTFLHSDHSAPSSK

In the case of “native β2 nAChR subunit from mouse brain (from UniProt Q9ERK7 26-501) (receptor)”, the binding [1] is reported as “binds”.

In the case of “untagged α4-nAChR (nAChR alpha4 WT) (from UniProt O70174 31-629) (receptor)”, the binding [2] is reported as “binds”.

“untagged β2-nAChR (nAChR beta2 WT) (from UniProt Q9ERK7 26-501) (receptor)” was tested, and the binding [3] was “binds”.

Source: PMC6313896
